PubChem BioAssay AID540303 (National Center for Advancing Translational Sciences (NCATS), 2011)
In all, about 330,000 compounds went through this assay and about 1,000 (0.3%) were called active. This list was built around the results that the source calls inconclusive (neither active nor inactive); the mix of calls is not that of the screen. Calls follow the shape of the dose curve; as a rule, active = well fitted inhibition curve with a large enough effect; inconclusive = small, poorly fitted or top-dose-only effect; inactive = no such curve, though single readings can be large or run the other way; tested in mouse RAW 264.7 cells. Potencies beside an inconclusive call are fits to weak or partial responses and may not hold up.

Assay: qHTS for Inhibitors of Cell Surface uPA Generation; also: nearly all actives have a fitted effect of over 55% in size
Details: cell surface uPA generation assay; series mostly up to 38.3 µM; activity change, negative = inhibition: at the top concentration
How it was run: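 Murine RAW 264.7 cells are treated for 24 h with compound up to 38.3 uM final. Cell ATP, measured by ATP-Lite, remains high if blocking the uPA cascade prevents LF from reaching the cytoplasm.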
% is scaled to controls: 0 for no effect and ±100 for the full control effect; potency is read from the fitted curve at half-maximal effect.

Compound	activity change, negative = inhibition	Potency
COc1ccc(/C=C/C(=O)Nc2ccccc2C(=O)NCC(c2ccc(OC)cc2)N(C)C)cc1 (stereo not drawn)	inactive: -14.1%	–
O=C(O)CCn1c(-c2ccccn2)nc2ccccc21	inactive: 1.74%	–
Cc1[nH]c2ccc(F)cc2c1CCN(Cc1ccncc1)C(=S)Nc1ccccc1	inactive: -5.74%	–
CCC(=O)Nc1cccc(-c2ccc(N3CCN(C)CC3)nn2)c1	–	inconclusive: 11.2 µM [inhibitor, partial curve, poor fit]
CN1CCN(c2ccc(NC(=S)NC(=O)c3cccc4ccccc34)cc2)CC1	–	inconclusive: 28.2 µM [inhibitor, single point]
COc1cc2c(c(OC)c1OC)-c1c(cc(OC)c(OC)c1OC)C[C@](C)(O)[C@@H](C)C2	–	inconclusive: 3.98 µM [inhibitor, partial curve, poor fit]
O=C(c1cccs1)N1CCc2ccccc21	–	inconclusive: 12.6 µM [inhibitor, single point]
Cc1ccc(-c2nnc(Cc3ccc(Cl)cc3)o2)cc1	inactive: -4.16%	–
CC1CCCCC1NC(=O)COC(=O)C12CC3CC(CC(Cl)(C3)C1)C2 (stereo not drawn)	inactive: -2.6%	–
COc1cc(/C=C/c2nc3ccccc3c(=O)[nH]2)ccc1OC(F)F	–	inconclusive: 0.355 µM [inhibitor, full curve, poor fit]
O=C(CC1N=C2c3ccccc3N=C(SCc3ccc(F)cc3)N2C1=O)NCc1ccco1 (stereo not drawn)	inactive: -6.95%	–
COc1ccc(C2CC(=O)c3cnn(-c4nc(C)cc(C)n4)c3C2)cc1 (stereo not drawn)	–	inconclusive: 22.4 µM [inhibitor, single point]
CCc1ccc(NC(=O)Nc2ccon2)cc1	–	inconclusive: 3.16 µM [inhibitor, partial curve, poor fit]
O=C(c1ccc(Cl)cc1)C(CN1CCCC1)c1ccccc1 (stereo not drawn)	–	active: 5.01 µM
Cc1cccc(C(=O)Nc2nc3ccc(S(C)(=O)=O)cc3s2)c1	–	inconclusive: 5.62 µM [inhibitor, full curve, poor fit]
COc1cccc(/C=N/NC(=O)CNC(=O)c2ccncc2)c1O	–	inconclusive: 1.41 µM [inhibitor, partial curve, poor fit]
O=S(=O)(c1cc(O)ccc1O)c1cccc2c(S(=O)(=O)c3cc(O)ccc3O)cccc12	–	inconclusive: 7.94 µM [inhibitor, single point]
O=C(OCc1nc2ccccc2s1)c1ccc([N+](=O)[O-])o1	inactive: -5.61%	–
CN(Cc1ccccc1)c1ccc(C(CC(N)=O)NC(=O)Cc2ccc(Br)cc2)cc1[N+](=O)[O-] (stereo not drawn)	–	inconclusive: 6.31 µM [inhibitor, single point]
O=C1c2ccccc2N(Cc2ccc(Cl)cc2)C2=NCCN12	–	inconclusive: 3.55 µM [inhibitor, partial curve, poor fit]
COc1ccc(OCCOc2ccc(N(C)S(=O)(=O)c3ccccc3)cc2)cc1	inactive: -1.6%	–
COc1ccc2c(c1)[C@H]1[C@H](CO2)[C@H](c2ccccc2)[C@]2(C)C(=O)Nc3ccc(C)cc3C(=O)N12	–	inconclusive: 7.94 µM [inhibitor, partial curve, poor fit]

Taken from above.
Entry of COc1ccc2c(c1)[C@H]1[C@H](CO2)[C@H](c2ccccc2)[C@]2(C)C(=O)Nc3ccc(C)cc3C(=O)N12 under Potency: inconclusive: 7.94 µM [inhibitor, partial curve, poor fit]
Entry of COc1cc2c(c(OC)c1OC)-c1c(cc(OC)c(OC)c1OC)C[C@](C)(O)[C@@H](C)C2 under Potency: inconclusive: 3.98 µM [inhibitor, partial curve, poor fit]

Additional structures

Compound	activity change, negative = inhibition	Potency
O=C(CSc1nnc2ccccn12)NC(=O)c1ccccc1Cl	–	inconclusive: 0.891 µM [inhibitor, partial curve, poor fit]
O=C(Nc1nc(-c2ccc3c(c2)OCO3)cs1)C1CC1	–	inconclusive: 11.2 µM [inhibitor, partial curve, poor fit]
C[C@H]1CN=C(N(C)C)N1CC1CCC(C(C)(C)C)CC1 (stereo partly drawn)	–	inconclusive: 5.62 µM [inhibitor, partial curve, poor fit]
c1nc(CCO[C@H]2CCCCO2)cc2cc3c(cc12)OCO3	–	inconclusive: 10 µM [inhibitor, single point]
COC(=O)C1C(=O)c2c([nH]c(C(=O)OCC3CCCO3)c2C)CC1C (stereo not drawn)	–	active: 12.6 µM
O=C(NCCCc1ccccc1)Nc1ccccc1	inactive: 1.38%	–
COc1ccc(-c2cc(=O)c3c(OC)c(OC)c(OC)c(OC)c3o2)cc1	inactive: 3.1%	–
Cc1cccc2c(C(=O)N3CCN(c4ccccn4)CC3)cc(-c3cccc(Br)c3)nc12	–	inconclusive: 31.6 µM [inhibitor, partial curve, poor fit]
COc1ccc(C(=O)N/N=C(/C)c2cccc(NC(=O)c3ccncc3)c2)cc1OC	inactive: -6.79%	–
CCOc1ccc(S(=O)(=O)N2CCC(C(=O)Nc3ccc(C)c(S(=O)(=O)N4CCOCC4)c3)CC2)cc1	–	inconclusive: 12.6 µM [inhibitor, partial curve, poor fit]
Cc1nc2c3cc(F)ccc3n(Cc3ccc(F)cc3)c2s1	–	active: 3.55 µM
CC(=O)N1CCN(C(=O)c2ccc(S(=O)(=O)Nc3cccc(C(F)(F)F)c3)cc2)CC1	inactive: 4.08%	–
COc1ccc(NC(=O)/C(C#N)=C/c2ccc(-c3ccc(Cl)c(C(=O)O)c3)o2)cc1	–	inconclusive: 0.0126 µM [inhibitor, full curve, poor fit]
O=C(COC(=O)/C=C/c1ccc2c(c1)OCO2)NCc1ccccc1	–	inconclusive: 12.6 µM [inhibitor, single point]
CC(=O)Nc1ccc(Nc2c3ccccc3nc3ccccc23)cc1	–	active: 1 µM
Cc1nc(SCC(=O)Nc2ccc(OCc3ccccc3)cc2)n[nH]1	–	inconclusive: 10 µM [inhibitor, single point]
CC(=O)NCCC1CCN(C(=O)c2cc(COc3ccc(C)nc3)on2)CC1	inactive: -5.17%	–
CC(C)N(C)Cc1nnnn1CC(=O)N(C)Cc1cccc(Cl)c1	–	inconclusive: 8.91 µM [inhibitor, single point]
COc1ccc(-c2ccc(-c3nc4ccc(C)cn4c3NC3CCCCC3)cc2OC)cc1	–	inconclusive: 8.91 µM [inhibitor, single point]
CN1CCN(CCCNC(=O)c2ccc(/C=C3/Sc4ccccc4N(Cc4cccc(Cl)c4)C3=O)cc2)CC1	–	inconclusive: 10 µM [inhibitor, single point]
C=CS(=O)(=O)N(Cc1ccccc1Br)[C@H](CO)Cc1ccccc1	–	inconclusive: 5.01 µM [inhibitor, partial curve, poor fit]
